Data published in PubChem BioAssay AID1347426 (Functional Genomics Laboratory (NCATS/FGL), 2020).
Hit rate of the full screen: of about 31,000 sequences, about 1,400 (4.5%) were called active.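 Rule for the calls: active = median seed-adjusted z-score above 1 or below -1; inactive = the rest.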 Some of the results follow.

Test: Novel Modifiers of Survival Motor Neuron (SMN) Protein: Gene Identification via Genome-wide siRNA Screen;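 note: luminescence tracks full-length SMN protein made from the SMN2 reporter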
Conditions: HEK293T SMN2-luciferase reporter, siRNA knockdown, 72 h; actives lie on both sides
Method in brief: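 Genome-wide siRNA screen (10418 genes, 3 siRNAs each, 1 pmol per well) by reverse transfection in HEK293T cells stably carrying an SMN2-luciferase reporter; luminescence after 72 hours, normalized to negative-control siRNA, log10-transformed, MAD-scored.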

Row | Sequence | median seed-adjusted z-score
1 | GGAGUUACAUCAGACCUAUTT against MOGAT1 | inactive: 0.293
2 | CAUCCCAUCAAGUUAGUUUTT against SLC25A13 | inactive: 0.00924
3 | GGUGCUUCAGGAUACCAUATT against HFE | inactive: -0.677
4 | ACUGCAUCCGGAUCACUGATT against CXXC1 | inactive: -0.841
5 | CAUUGUUAUUGCUGACUUUTT against P2RY14 | inactive: -0.0536
6 | GCAGAUUGGUGACCUGGUATT against MIB1 | inactive: 0
7 | GCCUGGAAUUCUACCGCUATT against SLC29A1 | inactive: 0.117
8 | GAGAUAUACGAGGAGAUUATT against TIGD1 | inactive: 0.224
9 | GCUGUUUUCUAUUAUUCGATT against SLC2A4 | inactive: 0.0588
10 | GAUGAAGACUGAAGGUGUATT against NDUFB2 | inactive: 0.063
11 | CCCUAGCUGUGGGUCAGAATT against DLL4 | inactive: 0.299
12 | GAGCUUAGUGAUAAUAUAATT against ANP32E | inactive: -0.0648
13 | ACUCUAUCCUUGCUUUGCATT against ZNF219 | inactive: 0.127
14 | CCACUUUAAGAAAAAUCGATT against DLGAP1 | inactive: 0.357
15 | GGACCAGUUUGGUAUUAGATT against GPR62 | inactive: 0.0306
16 | AGUCUACAUCCAGUACCAATT against GUCA2B | inactive: -0.146
17 | CUCUUCAACAGGGAGCUGATT against GPR27 | inactive: -0.678
18 | CGAAGAGGAUGUCACCGAATT against SLC22A1 | inactive: -0.637
19 | GACCAGGCGAUAAAAAGUATT against TXNL4B | inactive: 0.762
20 | CAACAUCUUUAAGCGGUCATT against NSUN4 | inactive: -0.491
21 | CCUGGAUCCAAAUAGCGAATT against SMARCA2 | inactive: -0.458
22 | CUACUGUUCUUGACCACAATT against DHX15 | active: 1.36

Four records picked at random from the list so far:
Row | Sequence | median seed-adjusted z-score
16 | AGUCUACAUCCAGUACCAATT against GUCA2B | inactive: -0.146
10 | GAUGAAGACUGAAGGUGUATT against NDUFB2 | inactive: 0.063
17 | CUCUUCAACAGGGAGCUGATT against GPR27 | inactive: -0.678
19 | GACCAGGCGAUAAAAAGUATT against TXNL4B | inactive: 0.762

Later entries:

Row | Sequence | median seed-adjusted z-score
23 | GCACUCAAGUUGUUUAACUTT against HOXA5 | inactive: 0
24 | CAAGCAGUGAGAACAAUAATT against ITGAD | inactive: 0.188
25 | AGACCGACGUGAAAGAGGATT against HAND2 | inactive: 0.0864
26 | CCACCAUCCUGAUCCUCUUTT against GPR45 | inactive: 0.0287
27 | CCAUCGCAGAGGGAGAUAATT against USP43 | inactive: 0
28 | CAAGGAGCAAGGUUCGGAATT against KIRREL3 | inactive: -0.206
29 | GAAGAACAUAGGUAAAUUUTT against PBX1 | inactive: -0.199
30 | GGACCUGCCUAAUUACCUUTT against LPCAT1 | inactive: -0.995
31 | GGCCUUUCUUUAUGCACUUTT against SGMS1 | inactive: -0.287
32 | CGGAAGGUAGUAAACCUUUTT against AMY1A | inactive: 0.272
33 | GCUCGUAAACUAGCUAAUATT against RCOR3 | inactive: 0.0446
34 | GUACCAAUACUGAUAAGAATT against SLC9A11 | inactive: -0.12
35 | AGUGCGCCCAGAAUCUAAATT against ZNF689 | inactive: 0.448
36 | GCCUCCUGUUUUGACCUAATT against THAP2 | inactive: -0.273
37 | GCCUUUCAUCAGAUCUUCUTT against DBX1 | inactive: 0.0137
38 | GAGUUAUGGUGAACCCACATT against CDKN2B | inactive: 0.0154
39 | CAUAGAUUCUGUACGGCAATT against MPP5 | inactive: 0.429
40 | GCACUGUCUUUUUCGAUGATT against VNN1 | inactive: 0.549
41 | CUAUGGAUCUAAUCGCAAATT against CS | inactive: -0.419
42 | CGGCAGUUGUAGCAGUAGATT against GMEB1 | inactive: 0.198
43 | CGUCUUCCUUGUGCGCCUATT against COL20A1 | inactive: -0.0033
44 | GUAGCAAUGUGGACAAGAUTT against NFIL3 | inactive: 0.4

Row | Sequence | median seed-adjusted z-score
45 | CGACAAGAUCAUCUACUCATT against GNA11 | inactive: -0.11
46 | CCGCUUCUAUAAGCUCUAUTT against USP11 | inactive: -0.0327
47 | CCAUCGUCAUGGAUCCAGATT against KDR | inactive: 0.0728
48 | CCUUCUUCAUGAUUCAGAATT against SLC39A8 | inactive: 0.265
49 | UGAACUUCGUGGUAAAGGATT against LZTR1 | inactive: 0.293
50 | CAACGAUUGUGCACCUGAATT against PCDHGB2 | inactive: -0.429
51 | CGUCCAUACUUACCUAAUUTT against UGT2A1 | inactive: 0.213
52 | CACUAUGGAGAAACAAUAUTT against ZNF181 | inactive: -0.154
53 | CAUCGAGACUUACCAGGUUTT against PPP2R2B | inactive: -0.252
54 | CGACAUCACCCAUUAUCCATT against NFIA | inactive: -0.268
55 | GUAUCACUCUUAGAAUCCATT against GP1BA | inactive: 0.0803
56 | GGCUUAACAUUGAACGAAUTT against CRY2 | inactive: 0.0209
57 | AAACAAUAAGAUCACUGUATT against LDHB | inactive: -0.515
58 | GCACUACGAGGACCAAGUUTT against RHBG | inactive: -0.126
59 | GGAGUGUCUGAAUCAGAGATT against HSPH1 | inactive: -0.314
60 | GCAAUGGGCUUAGUAUUCUTT against TGFBR1 | inactive: 0.226
61 | GAAAUACCUGGAUCAGUUUTT against ATP2C2 | inactive: -0.302
62 | GCAAUGUACUGGUGCGGAATT against ADCK1 | inactive: -0.177
63 | CCAACGACGUGGUGCAGAATT against CLDN14 | inactive: -0.456
64 | UCGUCUUCUUGAUUCGAAATT against TAF13 | inactive: -0.919
65 | GAGCUUUUGUUACAACUUATT against KLF6 | inactive: -0.0398
66 | CCGCGACUCUGAUGAGAAATT against PTK6 | inactive: -0.295

Row | Sequence | median seed-adjusted z-score
67 | GCAACUACCUCCAAACUCATT against HTR3B | inactive: 0.153
68 | CAGUGGAAAUAAUUACGUUTT against MDH1B | active: -1.13
69 | CAUCCAAAGUUAUCGAAAATT against APCS | inactive: 0.0494
70 | ACAUCGCCUACUUCCCACATT against ISOC2 | inactive: -0.599
71 | UCACCCUAUUACUUCCUGATT against APH1A | inactive: 0.741
72 | GCUUUAGCCGGAAAGACAATT against ZFP64 | inactive: -0.659
73 | CCUUCACGAAGGAGACAUATT against TJP2 | inactive: 0.0668
74 | GCAAGGAUUCAGAACCGGATT against RNF133 | inactive: 0
75 | CGCUUACAGAGUCACCAAATT against COL5A1 | inactive: -0.00475
76 | GAUCCUGACUUGAUAGAGATT against UBA6 | inactive: 0.0251
77 | CCAUUACACCAGCUAUACUTT against DKFZP586H2123 | inactive: -0.38
78 | GGACUGCAUGUACAAGGAUTT against ELL | inactive: -0.497
79 | CGCACUAAUUAUCAAGCUUTT against RFC1 | inactive: 0
80 | GGACGAUACCCAGAUUAUATT against CTCF | inactive: -0.0821
81 | GCACUUCAGACCUCAGUAATT against ZNF71 | inactive: -0.0193
82 | GCAGGUAAAGUUAACAAAUTT against PROZ | inactive: -0.422
83 | GGGACAUGGGAAUGCAAUATT against MSR1 | inactive: 0.0743
84 | CCACCAUCCAUGGUCAAGATT against SLC22A12 | inactive: -0.148
85 | GCGAGGAAGUACAACCGCATT against ACCN4 | inactive: -0.512
86 | CAUGUUCAAAGUACACUGATT against CTSS | inactive: 0.123
87 | UCAGGUCUCCAACACCUAUTT against TPD52L3 | inactive: 0.552
88 | GUGGGAAAGUCUAUGGAAATT against KLF9 | inactive: 0.767

An excerpt of these results, with tabs:
Row	Sequence	median seed-adjusted z-score
78	GGACUGCAUGUACAAGGAUTT against ELL	inactive: -0.497
79	CGCACUAAUUAUCAAGCUUTT against RFC1	inactive: 0
80	GGACGAUACCCAGAUUAUATT against CTCF	inactive: -0.0821
81	GCACUUCAGACCUCAGUAATT against ZNF71	inactive: -0.0193

Remaining list, next part

Row | Sequence | median seed-adjusted z-score
89 | GCAUUGGUGUAUGGAAUUATT against SLC6A15 | inactive: 0.0939
90 | CGAUUUCGACAGAUCCUAATT against ATP6V1D | inactive: 0.594
91 | GGAUCAUGCAAGACUUUGATT against DHFR | inactive: -0.952
92 | GGGUACUAAAUUCAGCUAATT against SOAT1 | inactive: 0.409
93 | GGUCUACAGUCAGUAUUCATT against ZNF616 | inactive: -0.0874
94 | GGAUAAAGUUCUUACUCAATT against SMAD1 | inactive: -0.0282
95 | CGCCUGUUCUACGAGAAGATT against ULK1 | inactive: -0.214
96 | CAACCCAAGAAGGAAUUAATT against PAK3 | inactive: 0
97 | CAACCAAUCAGAACCAUAATT against BTN3A3 | inactive: 0.886
98 | GACACUAUCUGGUCAGGUATT against NCAM1 | inactive: 0
99 | UGUUAUAACUUCACCAAUATT against CCL2 | inactive: 0.651
100 | GUUAAAAGAUGGUCAAGAATT against SLC22A5 | inactive: 0.349
101 | CCUAAAAAGUGACCAUCUATT against ZNF747 | inactive: 0.379
102 | CAUUGACCAUACUCCAGAATT against PPM1K | inactive: 0.154
103 | GCAAGACCAUCAACAAGAUTT against CHRNE | inactive: 0.349
104 | GUGAUGACCUGGAUAGUGATT against LRRK2 | inactive: -0.671
105 | CGGUUGGAUCCAUUACUCATT against OSBPL8 | inactive: 0.231
106 | CAAGGAAAAUUUGUGCAAATT against RBMS2 | inactive: -0.918
107 | GAAGCGCAGUCACCUGAAATT against PROC | inactive: -0.228
